For ten molecules, mTCRβ % results are on record in patent US20240123070A1, “EPITOPE PEPTIDE OF RAS G13D MUTANT AND T CELL RECEPTOR RECOGNIZING RAS G13D MUTANT” (SHANGHAI GENBASE BIOTECHNOLOGY CO., LTD., priority 2021, published 2024).

B1: β96T-V: B8.2.4 TCR point mutant, Vβ-CDR3 96T to V; CDR3β ASSQVVPPQH (protein)
TCR alpha: AQKITQTQPGMFVQEKEAVTLDCTYDTSDPSYGLFWYKQPSSGEMIFLIYQGSYDQQNATEGRYSLNFQKARKSANLVISASQLGDSAMYFCAMRERTGTASKLTFGTGTRLQVTLDIQNPEPAVYQLKDPRSQDSTLCLFTDFDSQINVPKTMESGTFITDKTVLDMKAMDSKSNGAIAWSNQTSFTCQDIFKETNATYPSSDVPCDATLTEKSFETDMNLNFQNLSVMGLRILLLKVAGFNLLMTLRLWSS
TCR beta: DVKVTQSSRYLVKRTGEKVFLECVQDMDHENMFWYRQDPGLGLRLIYFSYDVKMKEKGDIPEGYSVSREKKERFSLILESASTNQTSMYLCASSQVVPPQHFGDGTRLSILEDLRNVTPPKVSLFEPSKAEIANKQKATLVCLARGFFPDHVELSWWVNGKEVHSGVSTDPQAYKESNYSYCLSSRLRVSATFWHNPRNHFRCQVQFHGLSEEDKWPEGSPKPVTQNISAEAWGRADCGITSASYQQGVLSATILYEILLGKATLYAVLVSTLVVMAMVKRKNS
B2: β97V-E: B8.2.4 TCR point mutant, Vβ-CDR3 97V to E (protein)
TCR alpha: AQKITQTQPGMFVQEKEAVTLDCTYDTSDPSYGLFWYKQPSSGEMIFLIYQGSYDQQNATEGRYSLNFQKARKSANLVISASQLGDSAMYFCAMRERTGTASKLTFGTGTRLQVTLDIQNPEPAVYQLKDPRSQDSTLCLFTDFDSQINVPKTMESGTFITDKTVLDMKAMDSKSNGAIAWSNQTSFTCQDIFKETNATYPSSDVPCDATLTEKSFETDMNLNFQNLSVMGLRILLLKVAGFNLLMTLRLWSS
TCR beta: DVKVTQSSRYLVKRTGEKVFLECVQDMDHENMFWYRQDPGLGLRLIYFSYDVKMKEKGDIPEGYSVSREKKERFSLILESASTNQTSMYLCASSQTEPPQHFGDGTRLSILEDLRNVTPPKVSLFEPSKAEIANKQKATLVCLARGFFPDHVELSWWVNGKEVHSGVSTDPQAYKESNYSYCLSSRLRVSATFWHNPRNHFRCQVQFHGLSEEDKWPEGSPKPVTQNISAEAWGRADCGITSASYQQGVLSATILYEILLGKATLYAVLVSTLVVMAMVKRKNS
B3: β97V-F: B8.2.4 TCR point mutant, Vβ-CDR3 97V to F (protein)
TCR alpha: AQKITQTQPGMFVQEKEAVTLDCTYDTSDPSYGLFWYKQPSSGEMIFLIYQGSYDQQNATEGRYSLNFQKARKSANLVISASQLGDSAMYFCAMRERTGTASKLTFGTGTRLQVTLDIQNPEPAVYQLKDPRSQDSTLCLFTDFDSQINVPKTMESGTFITDKTVLDMKAMDSKSNGAIAWSNQTSFTCQDIFKETNATYPSSDVPCDATLTEKSFETDMNLNFQNLSVMGLRILLLKVAGFNLLMTLRLWSS
TCR beta: DVKVTQSSRYLVKRTGEKVFLECVQDMDHENMFWYRQDPGLGLRLIYFSYDVKMKEKGDIPEGYSVSREKKERFSLILESASTNQTSMYLCASSQTFPPQHFGDGTRLSILEDLRNVTPPKVSLFEPSKAEIANKQKATLVCLARGFFPDHVELSWWVNGKEVHSGVSTDPQAYKESNYSYCLSSRLRVSATFWHNPRNHFRCQVQFHGLSEEDKWPEGSPKPVTQNISAEAWGRADCGITSASYQQGVLSATILYEILLGKATLYAVLVSTLVVMAMVKRKNS
B4: β97V-D: B8.2.4 TCR point mutant, Vβ-CDR3 97V to D (protein)
TCR alpha: AQKITQTQPGMFVQEKEAVTLDCTYDTSDPSYGLFWYKQPSSGEMIFLIYQGSYDQQNATEGRYSLNFQKARKSANLVISASQLGDSAMYFCAMRERTGTASKLTFGTGTRLQVTLDIQNPEPAVYQLKDPRSQDSTLCLFTDFDSQINVPKTMESGTFITDKTVLDMKAMDSKSNGAIAWSNQTSFTCQDIFKETNATYPSSDVPCDATLTEKSFETDMNLNFQNLSVMGLRILLLKVAGFNLLMTLRLWSS
TCR beta: DVKVTQSSRYLVKRTGEKVFLECVQDMDHENMFWYRQDPGLGLRLIYFSYDVKMKEKGDIPEGYSVSREKKERFSLILESASTNQTSMYLCASSQTDPPQHFGDGTRLSILEDLRNVTPPKVSLFEPSKAEIANKQKATLVCLARGFFPDHVELSWWVNGKEVHSGVSTDPQAYKESNYSYCLSSRLRVSATFWHNPRNHFRCQVQFHGLSEEDKWPEGSPKPVTQNISAEAWGRADCGITSASYQQGVLSATILYEILLGKATLYAVLVSTLVVMAMVKRKNS
B5: β96T-Y: B8.2.4 TCR point mutant, Vβ-CDR3 96T to Y (protein)
TCR alpha: AQKITQTQPGMFVQEKEAVTLDCTYDTSDPSYGLFWYKQPSSGEMIFLIYQGSYDQQNATEGRYSLNFQKARKSANLVISASQLGDSAMYFCAMRERTGTASKLTFGTGTRLQVTLDIQNPEPAVYQLKDPRSQDSTLCLFTDFDSQINVPKTMESGTFITDKTVLDMKAMDSKSNGAIAWSNQTSFTCQDIFKETNATYPSSDVPCDATLTEKSFETDMNLNFQNLSVMGLRILLLKVAGFNLLMTLRLWSS
TCR beta: DVKVTQSSRYLVKRTGEKVFLECVQDMDHENMFWYRQDPGLGLRLIYFSYDVKMKEKGDIPEGYSVSREKKERFSLILESASTNQTSMYLCASSQYVPPQHFGDGTRLSILEDLRNVTPPKVSLFEPSKAEIANKQKATLVCLARGFFPDHVELSWWVNGKEVHSGVSTDPQAYKESNYSYCLSSRLRVSATFWHNPRNHFRCQVQFHGLSEEDKWPEGSPKPVTQNISAEAWGRADCGITSASYQQGVLSATILYEILLGKATLYAVLVSTLVVMAMVKRKNS
B6: β97V-C: B8.2.4 TCR point mutant, Vβ-CDR3 97V to C (protein)
TCR alpha: AQKITQTQPGMFVQEKEAVTLDCTYDTSDPSYGLFWYKQPSSGEMIFLIYQGSYDQQNATEGRYSLNFQKARKSANLVISASQLGDSAMYFCAMRERTGTASKLTFGTGTRLQVTLDIQNPEPAVYQLKDPRSQDSTLCLFTDFDSQINVPKTMESGTFITDKTVLDMKAMDSKSNGAIAWSNQTSFTCQDIFKETNATYPSSDVPCDATLTEKSFETDMNLNFQNLSVMGLRILLLKVAGFNLLMTLRLWSS
TCR beta: DVKVTQSSRYLVKRTGEKVFLECVQDMDHENMFWYRQDPGLGLRLIYFSYDVKMKEKGDIPEGYSVSREKKERFSLILESASTNQTSMYLCASSQTCPPQHFGDGTRLSILEDLRNVTPPKVSLFEPSKAEIANKQKATLVCLARGFFPDHVELSWWVNGKEVHSGVSTDPQAYKESNYSYCLSSRLRVSATFWHNPRNHFRCQVQFHGLSEEDKWPEGSPKPVTQNISAEAWGRADCGITSASYQQGVLSATILYEILLGKATLYAVLVSTLVVMAMVKRKNS
B7: β97V-H: B8.2.4 TCR point mutant, Vβ-CDR3 97V to H (protein)
TCR alpha: AQKITQTQPGMFVQEKEAVTLDCTYDTSDPSYGLFWYKQPSSGEMIFLIYQGSYDQQNATEGRYSLNFQKARKSANLVISASQLGDSAMYFCAMRERTGTASKLTFGTGTRLQVTLDIQNPEPAVYQLKDPRSQDSTLCLFTDFDSQINVPKTMESGTFITDKTVLDMKAMDSKSNGAIAWSNQTSFTCQDIFKETNATYPSSDVPCDATLTEKSFETDMNLNFQNLSVMGLRILLLKVAGFNLLMTLRLWSS
TCR beta: DVKVTQSSRYLVKRTGEKVFLECVQDMDHENMFWYRQDPGLGLRLIYFSYDVKMKEKGDIPEGYSVSREKKERFSLILESASTNQTSMYLCASSQTHPPQHFGDGTRLSILEDLRNVTPPKVSLFEPSKAEIANKQKATLVCLARGFFPDHVELSWWVNGKEVHSGVSTDPQAYKESNYSYCLSSRLRVSATFWHNPRNHFRCQVQFHGLSEEDKWPEGSPKPVTQNISAEAWGRADCGITSASYQQGVLSATILYEILLGKATLYAVLVSTLVVMAMVKRKNS
B8: β97V-G: B8.2.4 TCR point mutant, Vβ-CDR3 97V to G (protein)
TCR alpha: AQKITQTQPGMFVQEKEAVTLDCTYDTSDPSYGLFWYKQPSSGEMIFLIYQGSYDQQNATEGRYSLNFQKARKSANLVISASQLGDSAMYFCAMRERTGTASKLTFGTGTRLQVTLDIQNPEPAVYQLKDPRSQDSTLCLFTDFDSQINVPKTMESGTFITDKTVLDMKAMDSKSNGAIAWSNQTSFTCQDIFKETNATYPSSDVPCDATLTEKSFETDMNLNFQNLSVMGLRILLLKVAGFNLLMTLRLWSS
TCR beta: DVKVTQSSRYLVKRTGEKVFLECVQDMDHENMFWYRQDPGLGLRLIYFSYDVKMKEKGDIPEGYSVSREKKERFSLILESASTNQTSMYLCASSQTGPPQHFGDGTRLSILEDLRNVTPPKVSLFEPSKAEIANKQKATLVCLARGFFPDHVELSWWVNGKEVHSGVSTDPQAYKESNYSYCLSSRLRVSATFWHNPRNHFRCQVQFHGLSEEDKWPEGSPKPVTQNISAEAWGRADCGITSASYQQGVLSATILYEILLGKATLYAVLVSTLVVMAMVKRKNS
B9: β96T-W: B8.2.4 TCR point mutant, Vβ-CDR3 96T to W; CDR3β ASSQWVPPQH (protein)
TCR alpha: AQKITQTQPGMFVQEKEAVTLDCTYDTSDPSYGLFWYKQPSSGEMIFLIYQGSYDQQNATEGRYSLNFQKARKSANLVISASQLGDSAMYFCAMRERTGTASKLTFGTGTRLQVTLDIQNPEPAVYQLKDPRSQDSTLCLFTDFDSQINVPKTMESGTFITDKTVLDMKAMDSKSNGAIAWSNQTSFTCQDIFKETNATYPSSDVPCDATLTEKSFETDMNLNFQNLSVMGLRILLLKVAGFNLLMTLRLWSS
TCR beta: DVKVTQSSRYLVKRTGEKVFLECVQDMDHENMFWYRQDPGLGLRLIYFSYDVKMKEKGDIPEGYSVSREKKERFSLILESASTNQTSMYLCASSQWVPPQHFGDGTRLSILEDLRNVTPPKVSLFEPSKAEIANKQKATLVCLARGFFPDHVELSWWVNGKEVHSGVSTDPQAYKESNYSYCLSSRLRVSATFWHNPRNHFRCQVQFHGLSEEDKWPEGSPKPVTQNISAEAWGRADCGITSASYQQGVLSATILYEILLGKATLYAVLVSTLVVMAMVKRKNS
B10: β97V-A: B8.2.4 TCR point mutant, Vβ-CDR3 97V to A (protein)
TCR alpha: AQKITQTQPGMFVQEKEAVTLDCTYDTSDPSYGLFWYKQPSSGEMIFLIYQGSYDQQNATEGRYSLNFQKARKSANLVISASQLGDSAMYFCAMRERTGTASKLTFGTGTRLQVTLDIQNPEPAVYQLKDPRSQDSTLCLFTDFDSQINVPKTMESGTFITDKTVLDMKAMDSKSNGAIAWSNQTSFTCQDIFKETNATYPSSDVPCDATLTEKSFETDMNLNFQNLSVMGLRILLLKVAGFNLLMTLRLWSS
TCR beta: DVKVTQSSRYLVKRTGEKVFLECVQDMDHENMFWYRQDPGLGLRLIYFSYDVKMKEKGDIPEGYSVSREKKERFSLILESASTNQTSMYLCASSQTAPPQHFGDGTRLSILEDLRNVTPPKVSLFEPSKAEIANKQKATLVCLARGFFPDHVELSWWVNGKEVHSGVSTDPQAYKESNYSYCLSSRLRVSATFWHNPRNHFRCQVQFHGLSEEDKWPEGSPKPVTQNISAEAWGRADCGITSASYQQGVLSATILYEILLGKATLYAVLVSTLVVMAMVKRKNS

The test system of the series is murine TCRβ constant region. Briefly: mTCRβ expression detection on Jurkat-NFAT-Luc cells. It is filed as cell-based. The settings on record: TCR mutant transduced Jurkat-NFAT-Luc cells.
In turn, B1 displayed a mTCRβ % of 54.5%.
On to B2, for which the mTCRβ % is 78.4%.
On to B3, for which the mTCRβ % is reported as 77.2%.
Next, B4: 65.6%.
In turn, B5 returned a mTCRβ % of 69.9%.
As to B6, the mTCRβ % is listed as 52.6%.
As for B7, the figure is 53.6%; as for B8, 74.3%.
Next, B9: 67.4%; B10: 71.3%.
